{"source": "the supplement of paper PMC5949888", "note": "± gives the standard deviation of the averaged measurements. Most values lie at the floor of the assay. Slopes are relative: functional sequences can read slightly below zero."}
{"system": "Saccharomyces cerevisiae PS128 hsf1 delta, HSF1(1-493) fusion", "assay": "growth estimate (transactivation domain function in HSF1 fusion, heat-shock survival) (a.u. (slope of normalised read count over time)); higher = stronger growth at 37°C, i.e. more transactivation activity", "conditions": "library: random library"}
{"substance": "RPSRFVKTA", "growth estimate": "< -0.25"}
{"substance": "RPSVGKPCTRWPLKDPSQRL", "growth estimate": 0.275}
{"substance": "RPTPQSSG", "growth estimate": "< -0.25"}
{"substance": "RPTVHQPGQGPHWLVLAVTY", "growth estimate": "< -0.25"}
{"substance": "RPVSLESTTGPRRLE", "growth estimate": "< -0.25"}
{"substance": "RPVVA", "growth estimate": "< -0.25"}
{"substance": "RPWIACKCHRNAGRAWASDS", "growth estimate": "< -0.25"}
{"substance": "RPWRSRWPRRCVRSRGADGA", "growth estimate": "< -0.25"}
{"substance": "RPYGSGGLV", "growth estimate": "< -0.25"}
{"substance": "RPYPGGRKTVICRLRGSRAT", "growth estimate": "< -0.25"}
{"substance": "RQAALIAFQLGTTILCTGRG", "growth estimate": "< -0.25"}
{"substance": "RQALWSVEVTC", "growth estimate": "< -0.25"}
{"substance": "RQCAWNSTDICYVRLS", "growth estimate": "< -0.25"}
{"substance": "RQDTTRLKPCPLEGYSFIVS", "growth estimate": "< -0.25"}
{"substance": "RQG", "growth estimate": "< -0.25"}
{"substance": "RQGGDGSQASCGVEPSRILT", "growth estimate": "< -0.25"}
{"substance": "RQGKTAFQVQSDCTSTVSRV", "growth estimate": "< -0.25"}
{"substance": "RQGPRSTAL", "growth estimate": "< -0.25"}
{"substance": "RQGQ", "growth estimate": "< -0.25"}
{"substance": "RQGRHGRGHLPDSCPGHARL", "growth estimate": "< -0.25"}
{"substance": "RQGRMSNVFVGVVALFRDSA", "growth estimate": "< -0.25"}
{"substance": "RQGRRNRVARRGVNVGR", "growth estimate": "< -0.25"}
{"substance": "RQGTRMWRRTRGVV", "growth estimate": "< -0.25"}
{"substance": "RQGTTRANSAEF", "growth estimate": "< -0.25"}
{"substance": "RQHARPPLGIWQKPTSCAQY", "growth estimate": "< -0.25"}
{"substance": "RQI", "growth estimate": "< -0.25"}
{"substance": "RQIKGWDEMRAFVCMRVCFP", "growth estimate": "< -0.25"}
{"substance": "RQKCQEMENPANNGSSPIQA", "growth estimate": "< -0.25"}
{"substance": "RQLCNSRGP", "growth estimate": "< -0.25"}
{"substance": "RQLIVVARSIQVEFLRLDSD", "growth estimate": "< -0.25"}
{"substance": "RQLSQWGL", "growth estimate": "< -0.25"}
{"substance": "RQLT", "growth estimate": "< -0.25"}
{"substance": "RQMCPSRSSIFIHRLAPPWI", "growth estimate": "< -0.25"}
{"substance": "RQNTILLNVLFN", "growth estimate": "< -0.25"}
{"substance": "RQPVRLV", "growth estimate": "< -0.25"}
{"substance": "RQRL", "growth estimate": "< -0.25"}
{"substance": "RQSEYRIGSLQCILTV", "growth estimate": "< -0.25"}
{"substance": "RQTAAPCRFSPAKESRPICQ", "growth estimate": "< -0.25"}
{"substance": "RQTLGRTITNLRLRSIA", "growth estimate": "< -0.25"}
{"substance": "RQWIRLLGLAGATV", "growth estimate": "< -0.25"}
{"substance": "RQYPRFLCYVFASWPFRG", "growth estimate": "< -0.25"}
{"substance": "RRAGGGMAPGIPVDKSRN", "growth estimate": -0.243}
{"substance": "RRAGHVGRTTRGFGTTLRDK", "growth estimate": "< -0.25"}
{"substance": "RRASPAVLRSRCALDSRPYA", "growth estimate": "< -0.25"}
{"substance": "RRAWVWRRG", "growth estimate": "< -0.25"}
{"substance": "RRCGRF", "growth estimate": "< -0.25"}
{"substance": "RRCRQSQRCTWKRL", "growth estimate": -0.145}
{"substance": "RRCRQSYHGACSSITRGYQS", "growth estimate": "< -0.25"}
{"substance": "RRCRTS", "growth estimate": "< -0.25"}
{"substance": "RRCSDSPHAGARACRRRPYE", "growth estimate": "< -0.25"}
{"substance": "RRDDVGISLVVTFGLGCPSD", "growth estimate": "< -0.25"}
{"substance": "RRDEIATSQTME", "growth estimate": "< -0.25"}
{"substance": "RRDGTRLAGT", "growth estimate": "< -0.25"}
{"substance": "RRDRMVDPDCLESSRCTRSR", "growth estimate": "< -0.25"}
{"substance": "RREGQAVSRLGSDRPSYARV", "growth estimate": "< -0.25"}
{"substance": "RRERDPIIRARTISTSNLRR", "growth estimate": "< -0.25"}
{"substance": "RRFQKS", "growth estimate": -0.25}
{"substance": "RRG", "growth estimate": "-0.2496 ± 0.00081"}
{"substance": "RRGLD", "growth estimate": "< -0.25"}
{"substance": "RRGLPGVTRRKDWYKVADEA", "growth estimate": "< -0.25"}
{"substance": "RRGMESVVMEHLSLIVLPHQ", "growth estimate": "< -0.25"}
{"substance": "RRGQW", "growth estimate": "< -0.253"}
{"substance": "RRGRLSRSSVEPLA", "growth estimate": "< -0.25"}
{"substance": "RRGRTLSYETGLVQWTLDRG", "growth estimate": -0.243}
{"substance": "RRGS", "growth estimate": "< -0.25"}
{"substance": "RRHGATYSLRAQIG", "growth estimate": "< -0.25"}
{"substance": "RRHGDAWGVILLTCMGPIDG", "growth estimate": "< -0.25"}
{"substance": "RRI", "growth estimate": "< -0.25"}
{"substance": "RRIFIPRGFEGVRV", "growth estimate": "< -0.25"}
{"substance": "RRIHVKWGVLRKAAAVGSAV", "growth estimate": "< -0.25"}
{"substance": "RRISL", "growth estimate": "< -0.25"}
{"substance": "RRKGKKTLPLVMFCSRTGPG", "growth estimate": "< -0.25"}
{"substance": "RRKSDPHDPVSRSIYI", "growth estimate": "< -0.25"}
{"substance": "RRKVREGQVRRCLGRQTLAS", "growth estimate": "< -0.25"}
{"substance": "RRLELPVGSQGRYCMRWPTR", "growth estimate": "< -0.25"}
{"substance": "RRLG", "growth estimate": "< -0.25"}
{"substance": "RRLGDRPVLLWLNLQTGLSN", "growth estimate": "< -0.25"}
{"substance": "RRLPVPAN", "growth estimate": "< -0.25"}
{"substance": "RRLRGCGRGLGLSGSVLAQR", "growth estimate": "< -0.25"}
{"substance": "RRLRTSRQS", "growth estimate": "< -0.25"}
{"substance": "RRLT", "growth estimate": "< -0.25"}
{"substance": "RRLVETGAHVGDPNRRGSSN", "growth estimate": "< -0.25"}
{"substance": "RRLWPTLTCRKVLVGTHVKD", "growth estimate": "< -0.25"}
{"substance": "RRM", "growth estimate": "< -0.25"}
{"substance": "RRMFIYPATHRLSTRGGRHS", "growth estimate": -0.245}
{"substance": "RRNLG", "growth estimate": "< -0.25"}
{"substance": "RRNSGRTR", "growth estimate": "< -0.25"}
{"substance": "RRPMR", "growth estimate": "< -0.25"}
{"substance": "RRPSQGSRGRRYC", "growth estimate": "< -0.25"}
{"substance": "RRPSRKMVSAQGSTVNCRPP", "growth estimate": "< -0.25"}
{"substance": "RRQDRQDQSEGLGTLHSSGR", "growth estimate": "< -0.25"}
{"substance": "RRR", "growth estimate": "< -0.25"}
{"substance": "RRRFTDVAVRSMIGGSST", "growth estimate": "< -0.25"}
{"substance": "RRRVLSRGMERYLPVRTSLY", "growth estimate": "< -0.25"}
{"substance": "RRRYLLR", "growth estimate": "< -0.25"}
{"substance": "RRSARGTAVGRGADSHCCHL", "growth estimate": "< -0.25"}
{"substance": "RRSGCAWTSRFGWVVYLYPF", "growth estimate": "< -0.25"}
{"substance": "RRSGFQRTIGIMQPFLAGQE", "growth estimate": "< -0.25"}
{"substance": "RRSMFSVRVLMNRPPHP", "growth estimate": "< -0.25"}
{"substance": "RRSNASLAT", "growth estimate": "< -0.25"}
{"substance": "RRSNILQPRIQRPYLHRKRR", "growth estimate": "< -0.25"}
{"substance": "RRSVANFLSHEN", "growth estimate": "< -0.25"}
{"substance": "RRSVNPWASWASSQGQTREG", "growth estimate": "< -0.25"}
{"substance": "RRSYQCPYRGHQPGFRGRTR", "growth estimate": "< -0.25"}
{"substance": "RRTARGITYVGIRRLHQAVS", "growth estimate": "< -0.25"}
{"substance": "RRTVTVGQLVSVDSAILSCL", "growth estimate": "< -0.25"}
{"substance": "RRVLQYG", "growth estimate": "< -0.25"}
{"substance": "RRVYGWGIELNVV", "growth estimate": "< -0.25"}
{"substance": "RRWRIPLTGDEMSSLQNCKG", "growth estimate": "< -0.25"}
{"substance": "RRYIKGLSLSDRYGSSGPRS", "growth estimate": -0.145}
{"substance": "RRYRHLATSYSCIREGRTPR", "growth estimate": -0.246}
{"substance": "RSAGAELFPSNLEACRV", "growth estimate": "< -0.25"}
{"substance": "RSAIWAFEPACGPPEFGGRF", "growth estimate": 0.115}
{"substance": "RSAKGVEL", "growth estimate": "< -0.25"}
{"substance": "RSARGDDVDSRV", "growth estimate": "< -0.25"}
{"substance": "RSASEGI", "growth estimate": "< -0.25"}
{"substance": "RSCANMIGGFRMLYLGWSVL", "growth estimate": "< -0.25"}
{"substance": "RSCLAACP", "growth estimate": "< -0.25"}
{"substance": "RSCLG", "growth estimate": "< -0.25"}
{"substance": "RSCRTIGTRRALCARLSDRA", "growth estimate": "< -0.25"}
{"substance": "RSDDPAVLRFSAKVRYAFQS", "growth estimate": "< -0.25"}
{"substance": "RSDRCCMTALVSPQFSRRLL", "growth estimate": "< -0.25"}
{"substance": "RSDTHMGSSGIRIA", "growth estimate": "< -0.25"}
{"substance": "RSEGVRRCPGRGHWAC", "growth estimate": "< -0.25"}
{"substance": "RSFAV", "growth estimate": "< -0.25"}
{"substance": "RSFGYFGCLDLWYLRGQTGS", "growth estimate": "< -0.25"}
{"substance": "RSFRLSP", "growth estimate": "< -0.25"}
{"substance": "RSFSFRFF", "growth estimate": "< -0.25"}
{"substance": "RSG", "growth estimate": "< -0.25"}
{"substance": "RSGFISYPQDSDWVPGFSIY", "growth estimate": -0.169}
{"substance": "RSGGWEHLGSRWFNGEGMWS", "growth estimate": "< -0.25"}
{"substance": "RSGLSPLSLVVGPPLVWASL", "growth estimate": "< -0.25"}
{"substance": "RSGPCADPE", "growth estimate": "< -0.25"}
{"substance": "RSGRLEVLKSYSPRTPVQRV", "growth estimate": "< -0.25"}
{"substance": "RSGYADGVLRSDSVQEGIYH", "growth estimate": "< -0.25"}
{"substance": "RSH", "growth estimate": "< -0.25"}
{"substance": "RSHMDFLRCTSPQLREMLCP", "growth estimate": 0.183}
{"substance": "RSHQVGIRNSKTVCAQRCVR", "growth estimate": "< -0.25"}
{"substance": "RSHSVSSGLPHRFEFSMDGK", "growth estimate": "< -0.25"}
{"substance": "RSHYRVLGVLGEVTLGVSIR", "growth estimate": 0.0073}
{"substance": "RSHYSIGVETNTVATSTDDS", "growth estimate": "< -0.25"}
{"substance": "RSIKILCCKLQW", "growth estimate": "< -0.25"}
{"substance": "RSIP", "growth estimate": "< -0.25"}
{"substance": "RSISRLHSDTVYVNREIIGG", "growth estimate": "< -0.25"}
{"substance": "RSIWDVNED", "growth estimate": "< -0.25"}
{"substance": "RSKQAIAMSMCFP", "growth estimate": "< -0.25"}
